# Experimental data as given in the supplement of paper PMC10032668.
# Sequences of proteins named here, by UniProt entry; tags and fusion partners are left off.
# ACTL6A, O96019, UniProt O96019, whole entry: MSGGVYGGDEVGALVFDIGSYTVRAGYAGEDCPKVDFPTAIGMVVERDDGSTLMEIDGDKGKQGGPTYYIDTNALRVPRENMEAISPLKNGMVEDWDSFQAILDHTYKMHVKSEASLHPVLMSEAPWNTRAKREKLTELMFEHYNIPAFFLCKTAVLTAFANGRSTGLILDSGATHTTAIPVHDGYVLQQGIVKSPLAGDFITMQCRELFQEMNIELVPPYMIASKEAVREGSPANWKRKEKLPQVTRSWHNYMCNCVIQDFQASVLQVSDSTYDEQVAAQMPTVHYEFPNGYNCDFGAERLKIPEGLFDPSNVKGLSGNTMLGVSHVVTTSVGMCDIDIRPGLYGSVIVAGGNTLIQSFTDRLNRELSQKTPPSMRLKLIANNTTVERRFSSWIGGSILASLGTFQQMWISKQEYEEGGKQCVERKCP
# EIF3L, Q9Y262, UniProt Q9Y262, whole entry: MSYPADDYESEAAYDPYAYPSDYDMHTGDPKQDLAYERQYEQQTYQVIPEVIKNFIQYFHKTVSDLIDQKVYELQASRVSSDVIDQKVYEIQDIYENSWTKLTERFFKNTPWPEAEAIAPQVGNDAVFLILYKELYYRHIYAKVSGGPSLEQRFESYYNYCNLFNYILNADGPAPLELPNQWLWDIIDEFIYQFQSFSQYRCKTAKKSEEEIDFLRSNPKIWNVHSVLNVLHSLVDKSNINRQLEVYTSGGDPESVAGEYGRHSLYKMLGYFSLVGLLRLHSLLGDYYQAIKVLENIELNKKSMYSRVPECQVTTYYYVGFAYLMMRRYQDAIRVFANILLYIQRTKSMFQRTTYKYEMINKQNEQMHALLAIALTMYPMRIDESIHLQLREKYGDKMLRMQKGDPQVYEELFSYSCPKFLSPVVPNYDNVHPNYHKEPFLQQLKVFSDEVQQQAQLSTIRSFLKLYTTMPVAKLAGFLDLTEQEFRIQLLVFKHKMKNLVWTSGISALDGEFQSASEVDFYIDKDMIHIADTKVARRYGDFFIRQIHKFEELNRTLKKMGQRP
# INTS2, Q9H0H0, UniProt Q9H0H0, whole entry: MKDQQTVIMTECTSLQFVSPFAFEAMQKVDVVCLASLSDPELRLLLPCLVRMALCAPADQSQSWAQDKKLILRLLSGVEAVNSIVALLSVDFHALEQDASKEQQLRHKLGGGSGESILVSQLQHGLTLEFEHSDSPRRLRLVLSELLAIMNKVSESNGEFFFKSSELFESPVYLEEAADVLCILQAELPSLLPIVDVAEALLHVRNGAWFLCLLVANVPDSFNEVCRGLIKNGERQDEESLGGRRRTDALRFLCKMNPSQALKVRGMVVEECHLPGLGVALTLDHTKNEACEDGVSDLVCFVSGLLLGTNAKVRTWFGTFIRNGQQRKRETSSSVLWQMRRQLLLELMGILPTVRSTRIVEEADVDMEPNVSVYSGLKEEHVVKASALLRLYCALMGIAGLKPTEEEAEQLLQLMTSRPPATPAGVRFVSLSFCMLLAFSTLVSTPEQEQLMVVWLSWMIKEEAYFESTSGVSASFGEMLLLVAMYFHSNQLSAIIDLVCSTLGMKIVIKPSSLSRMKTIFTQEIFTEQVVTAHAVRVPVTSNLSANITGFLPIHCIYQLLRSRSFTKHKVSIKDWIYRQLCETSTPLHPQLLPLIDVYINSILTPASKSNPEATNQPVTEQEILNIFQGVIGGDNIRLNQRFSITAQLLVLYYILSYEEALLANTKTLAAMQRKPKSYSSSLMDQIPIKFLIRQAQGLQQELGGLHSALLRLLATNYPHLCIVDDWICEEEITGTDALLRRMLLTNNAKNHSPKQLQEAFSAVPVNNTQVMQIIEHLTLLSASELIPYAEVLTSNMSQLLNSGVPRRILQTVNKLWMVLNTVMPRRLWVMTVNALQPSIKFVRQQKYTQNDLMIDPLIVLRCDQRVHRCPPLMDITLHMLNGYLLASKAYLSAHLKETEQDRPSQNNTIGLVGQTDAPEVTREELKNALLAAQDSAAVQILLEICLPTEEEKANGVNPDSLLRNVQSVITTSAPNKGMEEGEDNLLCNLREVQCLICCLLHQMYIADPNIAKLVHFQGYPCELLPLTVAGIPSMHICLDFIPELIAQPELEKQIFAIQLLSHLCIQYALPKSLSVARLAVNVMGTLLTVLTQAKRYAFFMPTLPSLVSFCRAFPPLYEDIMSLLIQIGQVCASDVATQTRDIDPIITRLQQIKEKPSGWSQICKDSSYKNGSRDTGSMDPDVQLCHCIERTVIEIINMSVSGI
# RAD18, Q9NS91, UniProt Q9NS91, whole entry: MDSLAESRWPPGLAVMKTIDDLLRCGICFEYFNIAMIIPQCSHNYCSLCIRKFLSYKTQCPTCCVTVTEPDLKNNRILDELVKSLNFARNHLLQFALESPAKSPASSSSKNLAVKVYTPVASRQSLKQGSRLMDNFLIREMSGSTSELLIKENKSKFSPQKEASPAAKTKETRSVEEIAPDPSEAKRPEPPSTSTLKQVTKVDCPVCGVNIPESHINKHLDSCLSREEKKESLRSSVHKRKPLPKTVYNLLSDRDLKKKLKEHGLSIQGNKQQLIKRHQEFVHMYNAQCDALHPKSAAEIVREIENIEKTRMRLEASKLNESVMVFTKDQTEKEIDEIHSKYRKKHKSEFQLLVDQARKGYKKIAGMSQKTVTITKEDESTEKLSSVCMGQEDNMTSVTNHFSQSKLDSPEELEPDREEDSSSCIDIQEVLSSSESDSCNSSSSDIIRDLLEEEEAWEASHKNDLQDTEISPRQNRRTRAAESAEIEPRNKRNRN
# TRAPPC2L, Q9UL33, UniProt Q9UL33, whole entry: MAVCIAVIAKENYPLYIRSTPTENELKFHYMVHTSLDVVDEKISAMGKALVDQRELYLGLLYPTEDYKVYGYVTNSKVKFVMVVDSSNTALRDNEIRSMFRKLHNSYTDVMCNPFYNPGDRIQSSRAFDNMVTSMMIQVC
# This is one part of the list. Only hits are listed; about a third recur on repeated control peptides.
# Experiments:
# Experiment in all cases: PRISMA enrichment of interactor (LFQ) in peptide spot vs all other peptide spots (log2 fold change); higher = stronger / more specific binding of the interactor to the peptide
# ACTL6A, O96019 = molecular target: ACTL6A, O96019
# Protocol: (§1)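 PRISMA: 15-aa overlapping tiles (offset 8 aa) of 60 microproteins, plus SOS1/GLUT1 control peptides, were spot-synthesized on cellulose membranes in triplicate. Membranes were incubated with benzonase-treated HEK293T lysate, and bound proteins were identified by LC-MS/MS with LFQ. Enrichment is the log2 fold change of each protein in one spot versus all other spots. Only interactors passing the significance cutoff are listed.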
# CCT2, P78371 = molecular target: CCT2, P78371
# Protocol: as §1
# CEP290, O15078 = molecular target: CEP290, O15078
# Protocol: as §1
# COPG1, Q9Y678 = molecular target: COPG1, Q9Y678
# Protocol: as §1
# COQ8A, Q8NI60 = molecular target: COQ8A, Q8NI60
# Protocol: as §1
# CYC1, P08574 = molecular target: CYC1, P08574
# Protocol: as §1
# DHX30, Q7L2E3 = molecular target: DHX30, Q7L2E3
# Protocol: as §1
# EIF3L, Q9Y262 = molecular target: EIF3L, Q9Y262
# Protocol: as §1
# ERAL1, O75616 = molecular target: ERAL1, O75616
# Protocol: as §1
# GMNN, O75496 = molecular target: GMNN, O75496
# Protocol: as §1
# HP1BP3, Q5SSJ5 = molecular target: HP1BP3, Q5SSJ5
# Protocol: as §1
# INTS2, Q9H0H0 = molecular target: INTS2, Q9H0H0
# Protocol: as §1
# IRAK1, P51617 = molecular target: IRAK1, P51617
# Protocol: as §1
# LYZ, P61626 = molecular target: LYZ, P61626
# Protocol: as §1
# MMS19, Q96T76 = molecular target: MMS19, Q96T76
# Protocol: as §1
# MRPL18, Q9H0U6 = molecular target: MRPL18, Q9H0U6
# Protocol: as §1
# MRPL21, Q7Z2W9 = molecular target: MRPL21, Q7Z2W9
# Protocol: as §1
# NEPRO, Q6NW34 = molecular target: NEPRO, Q6NW34
# Protocol: as §1
# NOP53, Q9NZM5 = molecular target: NOP53, Q9NZM5
# Protocol: as §1
# NUP107, P57740 = molecular target: NUP107, P57740
# Protocol: as §1
# PDCD5, O14737 = molecular target: PDCD5, O14737
# Protocol: as §1
# PPIG, Q13427 = molecular target: PPIG, Q13427
# Protocol: as §1
# PUF60, Q9UHX1 = molecular target: PUF60, Q9UHX1
# Protocol: as §1
# RAD18, Q9NS91 = molecular target: RAD18, Q9NS91
# Protocol: as §1
# RPL28, P46779 = molecular target: RPL28, P46779
# Protocol: as §1
# SLC25A22, Q9H936 = molecular target: SLC25A22, Q9H936
# Protocol: as §1
# [1] = substrate: SON, P18583
# Protocol: as §1
# TRA2A, Q13595 = molecular target: TRA2A, Q13595
# Protocol: as §1
# TRAPPC2L, Q9UL33 = molecular target: TRAPPC2L, Q9UL33
# Protocol: as §1
# UBL5, Q9BZL1 = molecular target: UBL5, Q9BZL1
# Protocol: as §1
binder,measurement,setting,value
MAAFARSAITASLRG [JPX],PRISMA enrichment of interactor (log2),"ACTL6A, O96019",5.03
same,PRISMA enrichment of interactor (log2),"CCT2, P78371",5.01
same,PRISMA enrichment of interactor (log2),"CEP290, O15078",6.15
same,PRISMA enrichment of interactor (log2),"COPG1, Q9Y678",5.09
same,PRISMA enrichment of interactor (log2),"COQ8A, Q8NI60",5.44
same,PRISMA enrichment of interactor (log2),"CYC1, P08574",8.55
same,PRISMA enrichment of interactor (log2),"DHX30, Q7L2E3",5.32
same,PRISMA enrichment of interactor (log2),"EIF3L, Q9Y262",5.64
same,PRISMA enrichment of interactor (log2),"ERAL1, O75616",7.8
same,PRISMA enrichment of interactor (log2),"GMNN, O75496",4.41
same,PRISMA enrichment of interactor (log2),"HP1BP3, Q5SSJ5",5.28
same,PRISMA enrichment of interactor (log2),"INTS2, Q9H0H0",8.59
same,PRISMA enrichment of interactor (log2),"IRAK1, P51617",4.32
same,PRISMA enrichment of interactor (log2),"LYZ, P61626",3.87
same,PRISMA enrichment of interactor (log2),"MMS19, Q96T76",6.92
same,PRISMA enrichment of interactor (log2),"MRPL18, Q9H0U6",7.94
same,PRISMA enrichment of interactor (log2),"MRPL21, Q7Z2W9",5.3
same,PRISMA enrichment of interactor (log2),"NEPRO, Q6NW34",5.13
same,PRISMA enrichment of interactor (log2),"NOP53, Q9NZM5",6.12
same,PRISMA enrichment of interactor (log2),"NUP107, P57740",4.93
same,PRISMA enrichment of interactor (log2),"PDCD5, O14737",5.95
same,PRISMA enrichment of interactor (log2),"PPIG, Q13427",6.45
same,PRISMA enrichment of interactor (log2),"PUF60, Q9UHX1",9.73
same,PRISMA enrichment of interactor (log2),"RAD18, Q9NS91",4.48
same,PRISMA enrichment of interactor (log2),"RPL28, P46779",4.47
same,PRISMA enrichment of interactor (log2),"SLC25A22, Q9H936",4.46
same,PRISMA enrichment of interactor (log2),[1],6.32
same,PRISMA enrichment of interactor (log2),"TRA2A, Q13595",5.56
same,PRISMA enrichment of interactor (log2),"TRAPPC2L, Q9UL33",4.08
same,PRISMA enrichment of interactor (log2),"UBL5, Q9BZL1",6.15

# Part of the list above, with bars between the fields.
binder | measurement | setting | value
MAAFARSAITASLRG [JPX] | PRISMA enrichment of interactor (log2) | CEP290, O15078 | 6.15
same | PRISMA enrichment of interactor (log2) | HP1BP3, Q5SSJ5 | 5.28
